Measured values reported in the supplement of paper PMC10849652.
The list shows a part of the results.

Chains of the proteins cited; added tags and fusions are not shown. Lines headed by an entry give the natural chain unless they say otherwise; changes in a name come on top.
UniProt Q96EU7: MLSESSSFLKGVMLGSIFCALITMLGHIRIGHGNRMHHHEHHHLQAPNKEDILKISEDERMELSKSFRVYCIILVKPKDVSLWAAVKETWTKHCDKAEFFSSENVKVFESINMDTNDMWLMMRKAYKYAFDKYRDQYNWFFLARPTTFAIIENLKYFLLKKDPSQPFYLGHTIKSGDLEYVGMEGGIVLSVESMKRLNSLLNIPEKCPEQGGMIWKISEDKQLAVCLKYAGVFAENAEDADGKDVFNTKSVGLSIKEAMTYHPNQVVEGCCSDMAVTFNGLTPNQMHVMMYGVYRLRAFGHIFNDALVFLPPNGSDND
UniProt Q9Y6J0: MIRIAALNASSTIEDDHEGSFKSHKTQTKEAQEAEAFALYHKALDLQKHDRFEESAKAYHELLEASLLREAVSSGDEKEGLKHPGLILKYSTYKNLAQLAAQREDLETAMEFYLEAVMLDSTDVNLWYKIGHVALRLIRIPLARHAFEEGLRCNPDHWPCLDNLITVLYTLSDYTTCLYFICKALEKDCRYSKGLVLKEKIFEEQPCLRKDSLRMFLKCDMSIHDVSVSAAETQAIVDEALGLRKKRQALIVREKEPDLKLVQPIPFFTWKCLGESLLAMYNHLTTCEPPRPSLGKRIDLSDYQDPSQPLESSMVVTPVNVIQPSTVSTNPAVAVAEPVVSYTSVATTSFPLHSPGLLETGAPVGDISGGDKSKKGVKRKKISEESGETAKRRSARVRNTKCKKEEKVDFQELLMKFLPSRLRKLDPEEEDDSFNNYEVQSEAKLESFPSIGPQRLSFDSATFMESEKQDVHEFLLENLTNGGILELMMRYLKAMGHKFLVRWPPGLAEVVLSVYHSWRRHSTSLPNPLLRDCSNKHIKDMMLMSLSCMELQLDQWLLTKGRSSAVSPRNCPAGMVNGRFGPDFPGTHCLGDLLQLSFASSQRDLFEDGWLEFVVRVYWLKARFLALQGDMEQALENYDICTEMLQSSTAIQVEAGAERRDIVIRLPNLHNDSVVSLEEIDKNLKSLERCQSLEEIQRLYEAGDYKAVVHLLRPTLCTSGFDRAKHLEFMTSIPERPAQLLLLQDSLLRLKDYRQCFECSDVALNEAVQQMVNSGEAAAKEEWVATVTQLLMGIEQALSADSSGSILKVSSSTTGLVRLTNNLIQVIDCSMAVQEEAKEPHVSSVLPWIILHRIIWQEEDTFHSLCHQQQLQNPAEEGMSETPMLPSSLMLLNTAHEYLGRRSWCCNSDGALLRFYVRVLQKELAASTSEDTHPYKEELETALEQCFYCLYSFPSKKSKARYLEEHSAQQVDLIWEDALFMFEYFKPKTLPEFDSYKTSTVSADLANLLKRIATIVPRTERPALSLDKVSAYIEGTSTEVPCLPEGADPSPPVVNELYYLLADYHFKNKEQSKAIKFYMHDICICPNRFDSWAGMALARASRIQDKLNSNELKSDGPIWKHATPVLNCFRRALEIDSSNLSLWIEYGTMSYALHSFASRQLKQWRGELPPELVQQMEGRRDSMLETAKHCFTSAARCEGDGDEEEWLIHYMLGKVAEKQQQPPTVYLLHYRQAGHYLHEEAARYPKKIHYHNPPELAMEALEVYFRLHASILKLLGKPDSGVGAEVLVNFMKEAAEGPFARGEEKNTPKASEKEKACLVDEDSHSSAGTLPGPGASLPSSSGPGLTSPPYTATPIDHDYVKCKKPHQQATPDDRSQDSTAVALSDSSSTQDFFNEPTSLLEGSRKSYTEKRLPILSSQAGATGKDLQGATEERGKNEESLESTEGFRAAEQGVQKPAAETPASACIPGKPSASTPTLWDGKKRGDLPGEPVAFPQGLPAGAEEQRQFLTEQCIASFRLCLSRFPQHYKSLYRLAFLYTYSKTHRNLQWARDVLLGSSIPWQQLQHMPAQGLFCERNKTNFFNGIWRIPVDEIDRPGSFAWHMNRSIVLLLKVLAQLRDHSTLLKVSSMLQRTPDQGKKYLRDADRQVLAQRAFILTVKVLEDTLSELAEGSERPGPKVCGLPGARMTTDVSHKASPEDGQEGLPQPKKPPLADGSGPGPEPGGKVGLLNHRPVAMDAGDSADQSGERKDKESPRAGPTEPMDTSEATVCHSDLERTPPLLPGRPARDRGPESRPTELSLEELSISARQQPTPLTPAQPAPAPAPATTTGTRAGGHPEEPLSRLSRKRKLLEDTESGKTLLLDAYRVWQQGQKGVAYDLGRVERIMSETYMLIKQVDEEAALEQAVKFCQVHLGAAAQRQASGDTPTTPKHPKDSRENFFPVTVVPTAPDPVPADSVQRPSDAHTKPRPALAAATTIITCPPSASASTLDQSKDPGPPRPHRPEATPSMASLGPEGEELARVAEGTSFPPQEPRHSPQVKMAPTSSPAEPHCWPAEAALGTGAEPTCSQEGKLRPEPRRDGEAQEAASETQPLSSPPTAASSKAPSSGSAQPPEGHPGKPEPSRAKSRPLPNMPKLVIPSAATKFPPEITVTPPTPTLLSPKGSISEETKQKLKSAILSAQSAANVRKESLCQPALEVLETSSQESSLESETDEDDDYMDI
UniProt Q9H3H3: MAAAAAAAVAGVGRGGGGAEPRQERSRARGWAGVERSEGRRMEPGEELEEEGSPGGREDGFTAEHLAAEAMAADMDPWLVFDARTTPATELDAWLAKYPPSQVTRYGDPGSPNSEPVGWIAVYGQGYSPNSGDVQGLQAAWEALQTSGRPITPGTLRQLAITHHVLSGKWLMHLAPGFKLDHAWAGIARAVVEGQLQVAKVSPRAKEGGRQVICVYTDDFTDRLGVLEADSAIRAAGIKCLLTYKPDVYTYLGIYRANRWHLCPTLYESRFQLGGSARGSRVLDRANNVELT
UniProt Q13901: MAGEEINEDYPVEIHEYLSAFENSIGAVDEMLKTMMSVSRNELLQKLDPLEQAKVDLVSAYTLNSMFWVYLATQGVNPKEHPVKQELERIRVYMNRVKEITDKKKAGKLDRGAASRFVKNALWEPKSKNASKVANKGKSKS
UniProt O00478: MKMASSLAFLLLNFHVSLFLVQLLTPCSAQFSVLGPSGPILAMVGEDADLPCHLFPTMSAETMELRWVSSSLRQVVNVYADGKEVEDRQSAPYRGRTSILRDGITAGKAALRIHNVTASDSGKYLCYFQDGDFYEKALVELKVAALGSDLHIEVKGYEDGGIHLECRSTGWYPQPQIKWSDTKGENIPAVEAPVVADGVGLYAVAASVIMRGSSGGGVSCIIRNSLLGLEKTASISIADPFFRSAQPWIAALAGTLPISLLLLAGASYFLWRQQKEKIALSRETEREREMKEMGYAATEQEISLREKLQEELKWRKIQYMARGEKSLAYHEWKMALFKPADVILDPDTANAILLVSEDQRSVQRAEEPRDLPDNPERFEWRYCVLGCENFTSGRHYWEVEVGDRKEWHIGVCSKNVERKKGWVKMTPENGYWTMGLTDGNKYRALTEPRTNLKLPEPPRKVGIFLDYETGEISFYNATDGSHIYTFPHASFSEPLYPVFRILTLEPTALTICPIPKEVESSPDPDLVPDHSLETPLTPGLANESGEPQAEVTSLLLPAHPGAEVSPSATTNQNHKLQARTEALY
UniProt Q9UFG5: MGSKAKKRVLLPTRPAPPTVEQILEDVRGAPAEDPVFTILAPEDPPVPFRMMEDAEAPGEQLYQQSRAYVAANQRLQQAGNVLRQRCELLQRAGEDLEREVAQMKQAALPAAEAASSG
UniProt Q9BUW7: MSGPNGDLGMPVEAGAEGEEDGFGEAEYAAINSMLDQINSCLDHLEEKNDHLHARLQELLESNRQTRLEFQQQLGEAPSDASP
UniProt Q6P1S2: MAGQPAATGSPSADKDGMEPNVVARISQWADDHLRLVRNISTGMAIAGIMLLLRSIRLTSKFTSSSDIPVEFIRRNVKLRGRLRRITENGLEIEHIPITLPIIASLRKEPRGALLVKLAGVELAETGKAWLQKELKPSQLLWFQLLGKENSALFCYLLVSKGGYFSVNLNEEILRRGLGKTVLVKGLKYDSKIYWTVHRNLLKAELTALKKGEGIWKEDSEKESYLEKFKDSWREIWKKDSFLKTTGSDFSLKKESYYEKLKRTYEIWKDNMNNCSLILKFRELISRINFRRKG
UniProt Q7Z4R8: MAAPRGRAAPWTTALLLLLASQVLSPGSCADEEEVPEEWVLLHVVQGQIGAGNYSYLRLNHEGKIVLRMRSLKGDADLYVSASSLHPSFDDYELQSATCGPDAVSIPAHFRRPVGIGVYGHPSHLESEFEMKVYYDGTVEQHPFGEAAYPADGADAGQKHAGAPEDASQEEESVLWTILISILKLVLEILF
UniProt Q86Y37: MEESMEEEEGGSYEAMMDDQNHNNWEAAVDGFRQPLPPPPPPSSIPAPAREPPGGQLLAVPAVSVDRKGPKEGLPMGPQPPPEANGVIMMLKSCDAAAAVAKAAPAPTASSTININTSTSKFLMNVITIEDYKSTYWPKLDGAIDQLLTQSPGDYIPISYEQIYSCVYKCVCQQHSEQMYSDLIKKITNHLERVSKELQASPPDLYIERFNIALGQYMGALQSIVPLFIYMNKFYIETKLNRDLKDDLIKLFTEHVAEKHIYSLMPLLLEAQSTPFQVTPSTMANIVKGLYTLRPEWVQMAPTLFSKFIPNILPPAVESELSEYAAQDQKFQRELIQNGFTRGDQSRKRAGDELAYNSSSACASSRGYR
UniProt Q01518, whole entry, looked up: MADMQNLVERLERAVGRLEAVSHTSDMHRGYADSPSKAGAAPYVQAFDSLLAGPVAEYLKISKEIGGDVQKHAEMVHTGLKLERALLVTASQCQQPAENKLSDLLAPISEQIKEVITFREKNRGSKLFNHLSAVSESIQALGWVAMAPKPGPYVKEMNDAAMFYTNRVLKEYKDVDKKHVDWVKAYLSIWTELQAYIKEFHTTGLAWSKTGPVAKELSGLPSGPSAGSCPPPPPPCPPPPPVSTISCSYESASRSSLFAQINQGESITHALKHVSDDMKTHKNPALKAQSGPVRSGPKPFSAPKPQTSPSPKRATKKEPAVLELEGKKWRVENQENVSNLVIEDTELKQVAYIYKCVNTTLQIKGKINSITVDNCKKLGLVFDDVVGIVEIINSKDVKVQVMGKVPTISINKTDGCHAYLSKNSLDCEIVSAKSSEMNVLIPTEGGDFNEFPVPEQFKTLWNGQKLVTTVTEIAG

What was measured:
Test in all cases: log2 fold change, soluble protein after heating vs DMSO (PISA); higher = thermal stabilisation; K562 lysate, 10 uM; active = over 0.2 and 3.5 SD of the protein, either way, in both replicates (recomputed)
erlotinib = compound: C#Cc1cccc(Nc2ncnc3cc(OCCOC)c(OCCOC)cc23)c1 [erlotinib]
Procedure, shortened: (§1)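 Log-two fold change in thermal stability relative to solvent controls is reported from duplicates. For each sample, crude K562 extract from dounce-homogenised pellets in PBS pH 7.4 with 1 mM MgCl2, at 1 mg/mL protein, was treated with 10 μM compound for 30 min. Aliquots heated for 3 min across 48°C-58°C were pooled, brought to 0.5% NP-40 at 4°C and cleared at 21,000xg for 90 min. The supernatant was quantified by TMTpro 16plex LC-MS/MS with channel sums equalised.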

[1] = compound: C/C(=N\NC(=O)C1=CC(=CC=C1)S(=O)(=O)N2CCOCC2)/C3=C(C=CC(=C3)Cl)O
Procedure, shortened: as §1

[2] = compound: C1=CC(=CC=C1C2=NC3=C(N2)C=C(C=C3)C(=O)N)OC4=CC=C(C=C4)Cl
Procedure, shortened: as §1

[3] = compound: C1=CC2=C(C=CC(=C2)/C=C\3/C(=O)NC(=NCC4=CC=CS4)S3)N=C1
Procedure, shortened: as §1

[4] = compound: C1=CC2=NC=CN=C2C=C1/C=C/3\C(=O)NC(=O)S3
Procedure, shortened: as §1

[5] = compound: C1=CC=C(C=C1)C2=NC(=C(N2)C3=CC=NC=C3)C4=CC(=C(C=C4)Cl)O
Procedure, shortened: as §1

[6] = compound: C1=CC=C2C(=C1)C3=NNC4=CC=CC(=C43)C2=O
Procedure, shortened: as §1

[7] = compound: C1CCN(C1)C(=O)NC2=CC=CC(=C2)NC3=NC=C(C(=N3)NCCC4=CN=CN4)Br
Procedure, shortened: as §1

[8] = compound: C1CN(CCC1(CC2=CC=C(C=C2)Cl)N)C3=NC=NC4=C3C=CN4
Procedure, shortened: as §1

IRAK-1-4 Inhibitor I = compound: C1COCCN1CCN2C3=CC=CC=C3N=C2NC(=O)C4=CC(=CC=C4)[N+](=O)[O-] [IRAK-1-4 Inhibitor I]
Procedure, shortened: as §1

ibrutinib = compound: C=CC(=O)N1CCC[C@@H](n2nc(-c3ccc(Oc4ccccc4)cc3)c3c(N)ncnc32)C1 [ibrutinib]
Procedure, shortened: as §1

[9] = compound: CC(=O)c1cnc2ccc(-c3cc(Cl)c(O)c(Cl)c3)nc2c1N[C@H]1CC[C@H](CN(C)C)CC1
Procedure, shortened: as §1

ralimetinib = compound: CC(C)(C)Cn1c(N)nc2ccc(-c3[nH]c(C(C)(C)C)nc3-c3ccc(F)cc3)nc21 [ralimetinib]
Procedure, shortened: as §1

[10] = compound: CC(C)(O)CC(=O)NCCn1ccc2ncnc(Nc3ccc(Oc4cccc(C(F)(F)F)c4)c(Cl)c3)c21
Procedure, shortened: as §1

[11] = compound: CC(C)C1=C2N=C(C=C(N2N=C1)NCC3=CC=CC=C3)NCCCCCCN
Procedure, shortened: as §1

[12] = compound: CC1=C(C(CC(=O)N1)C2=CC=C(C=C2)C(F)(F)F)C(=O)NC3=C(C=C4C(=C3)C=NN4)F
Procedure, shortened: as §1

[13] = compound: CC1=C(C2=C(C=C1)C(=O)C3=CC=CC=C3N2CCCN)C
Procedure, shortened: as §1

[14] = compound: CC1=C(C=C(C=C1)NC(=O)C2=CC(=CC=C2)C(C)(C)C#N)NC3=CC4=C(C=C3)N=CN(C4=O)C
Procedure, shortened: as §1

[15] = compound: CC1=C(C=C(C=C1)NC(=O)C2=CC(=CC=C2)N(C)C)NC(=O)C3=CC=C(C=C3)O
Procedure, shortened: as §1

[16] = compound: CC1=CC=C(C=C1)SC2=C3C=C(SC3=CN=C2)C(=O)N
Procedure, shortened: as §1

Measured: log2 fold change

C1GALT1C1 (UniProt Q96EU7)
inactive: erlotinib -0.03 | [1] 0.14 | [2] -0.016 | [3] -0.004 | [4] 0.032 | [5] -0.01 | [6] -0.057 | [7] -0.097 | [8] -0.037 | IRAK-1-4 Inhibitor I 0.018 | ibrutinib 0.009 | [9] -0.166 | ralimetinib -0.023 | [10] -0.018 | [11] -0.011 | [12] -0.07 | [13] 0.013 | [14] 0.023 | [15] 0.005 | [16] -0.047

CABIN1 (UniProt Q9Y6J0)
inactive: erlotinib -0.052 | [1] 0.03 | [2] 0.084 | [3] 0.045 | [4] 0.028 | [5] 0.02 | [6] 0.011 | [7] -0.04 | [8] -0.184 | IRAK-1-4 Inhibitor I -0.097 | ibrutinib -0.068 | [9] -0.029 | ralimetinib -0.037 | [10] 0 | [11] -0.025 | [12] -0.148 | [13] -0.014 | [15] 0.085 | [16] 0.074

C11orf68 isoform 3 (UniProt Q9H3H3)
inactive: erlotinib -0.019 | [1] -0.006 | [2] 0.079 | [3] -0.01 | [4] -0.004 | [5] 0.006 | [6] 0.03 | [7] -0.037 | [8] 0.034 | IRAK-1-4 Inhibitor I 0.03 | ibrutinib -0.02 | [9] 0.017 | ralimetinib 0.01 | [10] -0.029 | [11] -0.025 | [12] -0.023 | [13] 0.004 | [14] 0 | [15] 0.018 | [16] -0.004

C1D (UniProt Q13901)
inactive: erlotinib 0.011 | [1] -0.069 | [2] 0 | [3] 0.076 | [4] -0.039 | [5] 0.03 | [6] -0.029 | [7] 0.01 | [8] 0.035 | IRAK-1-4 Inhibitor I -0.013 | ibrutinib -0.077 | [9] 0.011 | ralimetinib 0.002 | [10] -0.027 | [11] -0.021 | [12] -0.055 | [13] 0 | [14] -0.025 | [15] -0.037 | [16] 0.011

BTN3A3 (UniProt O00478)
inactive: erlotinib -0.11 | [1] 0.361 | [2] -0.188 | [3] -0.079 | [4] -0.038 | [5] 0.019 | [6] -0.148 | IRAK-1-4 Inhibitor I 0.02 | ibrutinib -0.057 | ralimetinib 0.103 | [10] 0.029 | [11] 0.178 | [12] 0.06 | [13] 0.072 | [14] -0.338 | [15] 0.119

C19orf25 (UniProt Q9UFG5)
inactive: erlotinib 0.076 | [1] -0.05 | [2] 0.02 | [3] 0.073 | [4] -0.156 | [5] 0.034 | [6] -0.045 | IRAK-1-4 Inhibitor I -0.006 | ibrutinib 0.158 | [9] -0.114 | ralimetinib -0.033 | [10] -0.143 | [11] -0.065 | [12] -0.019 | [13] -0.122 | [14] -0.009 | [15] 0.067 | [16] 0.003

C9orf16 (UniProt Q9BUW7)
inactive: erlotinib 0.012 | [1] -0.002 | [2] -0.031 | [3] 0.062 | [5] -0.007 | [6] 0.047 | [7] -0.043 | [8] -0.005 | IRAK-1-4 Inhibitor I -0.023 | ralimetinib 0.018 | [10] -0.094 | [11] 0.05 | [13] 0.037 | [14] -0.011 | [15] 0.11

C3orf33 (UniProt Q6P1S2)
inactive: erlotinib 0.195 | [1] -0.205 | [2] 0.209 | [3] -0.124 | [4] 0.068 | [5] 0.032 | [6] 0.123 | IRAK-1-4 Inhibitor I -0.281 | ibrutinib -0.045 | [9] -0.084 | ralimetinib 0.17 | [10] 0.012 | [11] -0.001 | [12] 0.046 | [13] -0.031 | [14] 0.117 | [15] -0.205 | [16] 0.008

C6orf120 (UniProt Q7Z4R8)
inactive: erlotinib 0.043 | [2] -0.014 | [4] 0.008 | ibrutinib 0.013 | [9] -0.017 | [11] -0.003 | [13] 0.015 | [16] 0.126

CACUL1 (UniProt Q86Y37)
inactive: erlotinib 0.232 | [1] -0.048 | [2] 0.087 | [3] 0.044 | [5] 0.027 | [6] 0.045 | [7] 0.042 | [8] 0.023 | IRAK-1-4 Inhibitor I 0.016 | [9] 0.164 | ralimetinib -0.023 | [10] 0.073 | [11] 0.027 | [13] -0.165 | [14] -0.126 | [15] 0.115 | [16] -0.09

CAP1 isoform 2 (UniProt Q01518)
inactive: erlotinib -0.027 | [2] 0.035 | [4] 0.011 | [5] 0.134 | IRAK-1-4 Inhibitor I 0.112 | ibrutinib -0.005 | ralimetinib -0.051 | [10] -0.16 | [11] 0.049 | [13] -0.062 | [14] -0.122 | [15] -0.103
